From article PMC12431657, “Discovery and mechanistic insights of dibenzoylmethane as a broad spectrum inhibitor of coronavirus” (PLOS Pathogens, 2025) come the findings set out here.

This assay relates to HCoV-OC43. On the set-up: species or system RD; HTS, protection from HCoV-OC43 induced cell death, luminescent cell viability (CellCounting-Lite 2.0), inhibition rate. The following applies: 24 h post infection, 1 h compound pre-incubation, 10 µM, inhibitor.

Where a name gives a salt, the structure may show the parent alone. Read-outs that look alike come from different tables or passages of the source. Out of some 3,300 compounds screened, about 60 (2%) showed an effect of 50% or more. The list shows a part of the results.

As for `COc1ccc(CO)cc1OC` [Veratryl alcohol], the “OC43 Inhibition rate” value is 9.4%. On the same count and under the same terms, the value for `C/C1=C\CCC2=C[C@@H](OC2=O)c2c(C)coc2C1` [Linderalactone] was -0.2%. The same measure, in the same setting: the value for `CCCCCCCCCCCCCCCc1cc(O)cc(O)c1` [5-Pentadecylresorcinol] was 11.8%; that for `C[C@H](CC[C@@H](O[C@@H]1O[C@H](CO[C@@H]2O[C@H](CO)[C@@H](O)[C@H](O)[C@H]2O)[C@@H](O)[C@H](O)[C@H]1O[C@@H]1O[C@H](CO)[C@@H](O)[C@H](O)[C@H]1O)C(C)(C)O)[C@H]1CC[C@@]2(C)[C@@H]3CC=C4[C@@H](CC[C@H](O[C@@H]5O[C@H](CO[C@@H]6O[C@H](CO)[C@@H](O)[C@H](O)[C@H]6O)[C@@H](O)[C@H](O)[C@H]5O)C4(C)C)[C@]3(C)C(=O)C[C@]12C` [11-oxo-mogroside V] was 0%.

For the compound `Nc1ccn([C@@H]2O[C@H](COP(=O)(O)O)[C@@H](O)[C@H]2O)c(=O)n1` [Cytidine 5'-monophosphate], the “OC43 Inhibition rate” value was -5.5%. On the same count and under the same terms, the value for `C=C[C@H]1[C@H](O[C@@H]2O[C@H](CO)[C@@H](O)[C@H](O)[C@H]2OC(=O)c2c(O)cc(O)cc2-c2cccc(O)c2)OC=C2C(=O)OCC[C@H]21` [Amarogentin] was -2.6%. Still for that read-out and setting: the value for `COc1c2ccoc2c(OC[C@H]2OC2(C)C)c2oc(=O)ccc12` [Byakangelicol] was -1.1%; that for `CCCCCCC(O)C(=O)O` (stereo not shown) [2-Hydroxyoctanoic acid] was 6.7%; that for `S=C=NCc1ccccc1` [Benzyl isothiocyanate] was 0.2%. Same read-out and setting: the value for `CCCCCCCC=O` [Octanal] was -0.1%. With `COc1cc(/C=C/C=O)ccc1O` [Coniferaldehyde], the “OC43 Inhibition rate” value is recorded as 0.7%. Still for that read-out and setting: the value for `CCCCCC(C)C(=O)O` (stereo not shown) [2-Methylheptanoic acid] was 0%; that for `CCC(=O)C(=O)O` [2-Oxobutanoic acid] was -0.3%.

Consider `COc1cc([C@@H]2c3cc4c(cc3[C@@H]3OC[C@H]2[C@@H]3CO)OCO4)cc(OC)c1OC` [Neoanhydropodophyllol], for which the “OC43 Inhibition rate” value is recorded as -0.6%. On the same count and under the same terms, the value for `C=C[C@H]1CN2CC[C@@]3(C(=O)Nc4ccccc43)[C@@H]2C[C@@H]1/C(=C\OC)C(=O)OC` [Isocorynoxeine] was -0.3%. For `C=C[C@H]1[C@H](O[C@@H]2O[C@H](CO)[C@@H](O)[C@H](O)[C@H]2O)OC=C(C(=O)OC)[C@H]1C[C@@H]1c2cc(O)c(O)cc2CCN1C(C)=O` [Ipecoside], the “OC43 Inhibition rate” value is on record as 1.4%. Same read-out and setting: the value for `COc1ccc(-c2cc(=O)c3c(OC)cc(OC)cc3o2)cc1` [5,7,4'-Trimethoxyflavone] was 0.4%; that for `Cc1c(=O)c(=O)c2c3c[nH]c4c(C)c(=O)c(=O)c(c5c[nH]c1c52)c43` [Melanin] was -0.2%; that for `C[C@H](Cc1ccc(O)c(O)c1)[C@@H](C)Cc1ccc(O)c(O)c1` [Nordihydroguaiaretic acid] was -0.6%. On the same count and under the same terms, the value for `C[C@H](O)[C@H](O)[C@H]1CNc2nc(N)[nH]c(=O)c2N1` [Tetrahydrobiopterin] was 0.1%.

Consider `C[n+]1cccc(C(=O)[O-])c1` [Trigonelline], for which, for the setting “OC43 Inhibition rate, 24 h”, the “OC43 Inhibition rate” value is recorded as 1.3%. As to `CC(CCC(=O)O)CC(=O)O` (stereo not shown) [3-Methyladipic acid], the “OC43 Inhibition rate” value is on record as -0.9%. The same measure, in the same setting: the value for `CCCCCCCCC1=C(CCCCCCCC(=O)O)C1` [Sterculic acid] was -0.9%. Same read-out and setting: the value for `O=C(O)c1cc(O)ccc1O` [2,5-Dihydroxybenzoic acid] was 1.4%; that for `COc1cc2ccc(=O)oc2cc1OC` [Scoparone] was 0.8%.

Take `O=C(/C=C/c1ccc(O)c(O)c1)c1ccc(O)c(O)c1O` [Okanin]: the “OC43 Inhibition rate” value stood at 22%. In the case of `C[C@H]1[C@H]2CC[C@H]3[C@@H]4CC=C5C[C@@H](N(C)C)CC[C@]5(C)[C@H]4CC[C@]23CN1C` [Conessine], the “OC43 Inhibition rate” value turned out to be 52.4%. Still for that read-out and setting: the value for `O=C(O)C1CCCCC1` [Cyclohexanecarboxylic acid] was 10.2%; that for `CC(=O)N[C@@H](CC(N)=O)C(=O)O` [(S)-2-acetamido-4-amino-4-oxobutanoic acid] was 0.1%. On the same count and under the same terms, the value for `CC(C)CCC[C@](C)(O)[C@H]1CC[C@H]2[C@@H]3CC=C4C[C@@H](O)CC[C@]4(C)[C@H]3CC[C@@]21C` [20(S)-Hydroxycholesterol] was 0%. On the same count and under the same terms, the value for `COC(=O)[C@H]1[C@H]2C[C@H]3c4[nH]c5ccccc5c4CCN3C[C@H]2CC[C@@H]1O` [Rauwolscine (hydrochloride)] was 0.1%. On to `CCCCCCCC(=O)c1c(O)cc(O)cc1CC(=O)OCC` [Cytosporone B], for which the “OC43 Inhibition rate” value is given as 0.2%. On the same count and under the same terms, the value for `CC(C)=CCC[C@@H](C)[C@@H]1CC[C@]2(C)C3=C(CC[C@@]12C)[C@@]1(C)CC[C@H](O)C(C)(C)[C@@H]1CC3` [Euphol] was 25.9%; that for `CCCCC/C=C\C/C=C\C/C=C\C/C=C\CCCC(=O)O[C@H]1CC[C@@]2(C)C(=CC[C@H]3[C@@H]4CC[C@H]([C@H](C)CCCC(C)C)[C@@]4(C)CC[C@@H]32)C1` [Cholesteryl arachidonate] was 0%. As to `COc1ccc(CCC(=O)c2c(O)cc(O[C@@H]3O[C@H](CO)[C@@H](O)[C@H](O)[C@H]3O[C@@H]3O[C@@H](C)[C@H](O)[C@@H](O)[C@H]3O)cc2O)cc1O` [Neohesperidin dihydrochalcone], the “OC43 Inhibition rate” value was 0%. As for `O=C(/C=C/c1ccc(O)c(O)c1)O[C@@H](C(=O)O)[C@@H](O)C(=O)O` [Caftaric acid], the “OC43 Inhibition rate” value is reported as 0.6%. The same measure, in the same setting: the value for `CO[C@H]1C[C@H](O[C@H]2CC[C@@]3(C)[C@H](CC[C@@H]4[C@@H]3CC[C@]3(C)[C@@H](C5=CC(=O)OC5)[C@@H](OC(C)=O)C[C@]43O)C2)O[C@@H](C)[C@@H]1O` [Oleandrin] was 1.5%. Same read-out and setting: the value for `C=C(C)[C@@H]1CC[C@]2(C(=O)O[C@@H]3O[C@H](CO[C@@H]4O[C@H](CO)[C@@H](O[C@@H]5O[C@@H](C)[C@H](O)[C@@H](O)[C@H]5O)[C@H](O)[C@H]4O)[C@@H](O)[C@H](O)[C@H]3O)CC[C@]3(C)[C@H](CC[C@@H]4[C@@]5(C)CC[C@H](O[C@@H]6OC[C@H](O)[C@H](O)[C@H]6O[C@@H]6O[C@@H](C)[C@H](O)[C@@H](O)[C@H]6O)[C@@](C)(CO)[C@@H]5CC[C@]43C)[C@@H]12` [Pulchinenoside C] was -0.7%; that for `CCCCC/C=C\C/C=C\CCCCCCCCO` [Linoleyl alcohol] was 4.7%; that for `CC1(C)COC(=O)[C@@H]1O` [(R)-3-Hydroxy-4,4-dimethyldihydrofuran-2(3H)-one] was -0.1%.

With `CC(C)=CCC[C@](C)(O[C@@H]1O[C@H](CO[C@@H]2OC[C@@H](O)[C@H](O)[C@H]2O)[C@@H](O)[C@H](O)[C@H]1O)[C@H]1CC[C@]2(C)[C@@H]1[C@H](O)C[C@@H]1[C@@]3(C)CC[C@H](O[C@@H]4O[C@H](CO)[C@@H](O)[C@H](O)[C@H]4O[C@@H]4O[C@H](CO)[C@@H](O)[C@H](O)[C@H]4O)C(C)(C)[C@@H]3CC[C@]12C` [Ginsenoside Rb3], the “OC43 Inhibition rate” value is -0.1%. Still for that read-out and setting: the value for `C[C@H](CCC(=O)O)[C@H]1CC[C@H]2[C@@H]3[C@@H](O)C[C@@H]4C[C@H](O)CC[C@]4(C)[C@H]3C[C@H](O)[C@]12C` [Ursocholic acid] was 0.7%; that for `CCC[C@@H]1C[C@@H](C(=O)N[C@@H]([C@H]2O[C@H](SC)[C@H](O)[C@@H](O)[C@H]2O)[C@@H](C)O)N(C)C1` [Lincomycin (hydrochloride monohydrate)] was -2.1%; that for `O=Cc1ccccc1C(=O)O` [2-Carboxybenzaldehyde] was -0.4%. Take `CC(C)=CCc1cc2c(cc1O)O[C@H](c1ccc(O)cc1)CC2=O` [Bavachin]: the “OC43 Inhibition rate” value came out at 66.9%.

On to `C/C=C(/C)C(=O)O[C@H]1[C@H](OC(C)=O)[C@]2(CO)[C@H](O)C[C@]3(C)C(=CC[C@@H]4[C@@]5(C)CC[C@H](O[C@@H]6O[C@H](C(=O)O)[C@@H](O[C@@H]7O[C@H](CO)[C@@H](O)[C@H](O)[C@H]7O)[C@H](O)[C@H]6O[C@@H]6O[C@H](CO)[C@@H](O)[C@H](O)[C@H]6O)[C@](C)(CO)[C@@H]5CC[C@]43C)[C@@H]2CC1(C)C` [Escin IB], for which the “OC43 Inhibition rate” value came to 0.4%. Same read-out and setting: the value for `O=C(O)c1ccc(=O)oc1` [Coumalic acid] was 10.5%. As to `COc1cc2oc(-c3ccc(O)c(O)c3)cc(=O)c2c(O)c1OC` [Cirsiliol], the “OC43 Inhibition rate” value amounted to 26.8%. Same read-out and setting: the value for `c1cc2c(c3c1CC1c4cc5c(cc4CCN1C3)OCO5)OCO2` (racemic) [(±)-Stylopine] was -0.3%.

Turning to `COc1ccc2cc3[n+](cc2c1OC)CCc1cc2c(cc1-3)OCO2` [Berberine (chloride hydrate)], the “OC43 Inhibition rate” value (OC43 Inhibition rate, 24 h) is -15%. As for `CCc1cccc(C)c1O` [2-Ethyl-6-methylphenol], the “OC43 Inhibition rate” value was -0.6%.

As for `COc1ccc(-c2cc(=O)c3c(OC)c(OC)c(OC)c(OC)c3o2)cc1OC` [Nobiletin], the “OC43 Inhibition rate” value was determined as 7.9%. In the case of `COc1cc(-c2coc3cc4c(c(O)c3c2=O)OCO4)cc(O)c1OC` [Dichotomitin], the “OC43 Inhibition rate” value is given as 0.4%. The same measure, in the same setting: the value for `C[C@@H]1CC[C@@]2(OC1)O[C@H]1C[C@H]3[C@@H]4CC=C5C[C@@H](O[C@@H]6O[C@H](CO)[C@@H](O[C@@H]7O[C@@H](C)[C@H](O)[C@@H](O)[C@H]7O)[C@H](O)[C@H]6O[C@@H]6O[C@@H](C)[C@H](O)[C@@H](O)[C@H]6O)CC[C@]5(C)[C@H]4CC[C@]3(C)[C@H]1[C@@H]2C` [Dioscin] was -0.2%. Turning to `CC1(C)C=Cc2c(ccc3c2OC[C@@H](c2ccc(O)cc2O)C3)O1` [Glabridin], the “OC43 Inhibition rate” value was -1.6%.
